# Measured values as given in article PMC4351826.
# Sequences of proteins named here, by UniProt entry; tags and fusion partners are left off.
# UniProt P84634: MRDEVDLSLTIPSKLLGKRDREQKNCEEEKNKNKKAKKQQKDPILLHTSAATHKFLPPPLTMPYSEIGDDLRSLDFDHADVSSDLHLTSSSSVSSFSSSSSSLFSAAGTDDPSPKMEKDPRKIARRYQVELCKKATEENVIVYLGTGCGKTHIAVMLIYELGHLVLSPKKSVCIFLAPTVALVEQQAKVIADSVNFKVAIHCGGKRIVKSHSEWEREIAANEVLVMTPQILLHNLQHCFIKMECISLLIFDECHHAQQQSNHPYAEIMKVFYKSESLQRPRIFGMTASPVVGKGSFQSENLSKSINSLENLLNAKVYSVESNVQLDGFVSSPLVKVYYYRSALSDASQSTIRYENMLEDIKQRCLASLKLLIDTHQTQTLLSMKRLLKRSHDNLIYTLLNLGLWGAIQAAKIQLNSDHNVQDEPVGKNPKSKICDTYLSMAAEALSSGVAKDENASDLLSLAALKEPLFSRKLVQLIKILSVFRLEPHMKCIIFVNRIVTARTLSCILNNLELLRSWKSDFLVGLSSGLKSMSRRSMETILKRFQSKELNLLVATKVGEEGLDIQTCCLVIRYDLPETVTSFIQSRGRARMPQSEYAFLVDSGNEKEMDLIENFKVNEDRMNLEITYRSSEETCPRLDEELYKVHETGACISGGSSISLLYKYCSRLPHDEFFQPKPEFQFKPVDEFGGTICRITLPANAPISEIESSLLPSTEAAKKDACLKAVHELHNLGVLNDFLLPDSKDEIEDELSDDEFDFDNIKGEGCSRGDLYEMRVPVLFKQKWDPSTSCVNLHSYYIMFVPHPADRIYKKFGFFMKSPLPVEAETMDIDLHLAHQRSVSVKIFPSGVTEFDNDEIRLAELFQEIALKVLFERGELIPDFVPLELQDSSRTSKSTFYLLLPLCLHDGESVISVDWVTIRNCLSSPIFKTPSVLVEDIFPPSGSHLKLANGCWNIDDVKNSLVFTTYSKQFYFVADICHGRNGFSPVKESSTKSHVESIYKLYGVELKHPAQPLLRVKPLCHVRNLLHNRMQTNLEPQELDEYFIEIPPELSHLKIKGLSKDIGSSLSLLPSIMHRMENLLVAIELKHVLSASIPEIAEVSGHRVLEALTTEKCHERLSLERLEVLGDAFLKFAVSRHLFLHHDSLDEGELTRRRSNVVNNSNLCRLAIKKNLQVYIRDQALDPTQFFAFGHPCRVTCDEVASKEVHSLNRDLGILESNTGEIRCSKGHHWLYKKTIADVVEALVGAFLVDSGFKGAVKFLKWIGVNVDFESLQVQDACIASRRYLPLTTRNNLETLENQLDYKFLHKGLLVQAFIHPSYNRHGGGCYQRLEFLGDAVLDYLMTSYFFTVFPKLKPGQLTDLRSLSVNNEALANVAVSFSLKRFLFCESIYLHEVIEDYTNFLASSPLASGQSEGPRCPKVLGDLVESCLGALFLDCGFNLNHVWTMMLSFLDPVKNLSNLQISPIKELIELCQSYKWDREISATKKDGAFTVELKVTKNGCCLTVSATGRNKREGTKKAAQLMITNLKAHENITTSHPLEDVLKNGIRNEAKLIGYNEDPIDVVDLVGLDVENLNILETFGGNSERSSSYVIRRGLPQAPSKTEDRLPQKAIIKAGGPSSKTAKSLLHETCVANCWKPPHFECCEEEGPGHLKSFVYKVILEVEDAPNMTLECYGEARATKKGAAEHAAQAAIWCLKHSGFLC
# UniProt Q9LXW7: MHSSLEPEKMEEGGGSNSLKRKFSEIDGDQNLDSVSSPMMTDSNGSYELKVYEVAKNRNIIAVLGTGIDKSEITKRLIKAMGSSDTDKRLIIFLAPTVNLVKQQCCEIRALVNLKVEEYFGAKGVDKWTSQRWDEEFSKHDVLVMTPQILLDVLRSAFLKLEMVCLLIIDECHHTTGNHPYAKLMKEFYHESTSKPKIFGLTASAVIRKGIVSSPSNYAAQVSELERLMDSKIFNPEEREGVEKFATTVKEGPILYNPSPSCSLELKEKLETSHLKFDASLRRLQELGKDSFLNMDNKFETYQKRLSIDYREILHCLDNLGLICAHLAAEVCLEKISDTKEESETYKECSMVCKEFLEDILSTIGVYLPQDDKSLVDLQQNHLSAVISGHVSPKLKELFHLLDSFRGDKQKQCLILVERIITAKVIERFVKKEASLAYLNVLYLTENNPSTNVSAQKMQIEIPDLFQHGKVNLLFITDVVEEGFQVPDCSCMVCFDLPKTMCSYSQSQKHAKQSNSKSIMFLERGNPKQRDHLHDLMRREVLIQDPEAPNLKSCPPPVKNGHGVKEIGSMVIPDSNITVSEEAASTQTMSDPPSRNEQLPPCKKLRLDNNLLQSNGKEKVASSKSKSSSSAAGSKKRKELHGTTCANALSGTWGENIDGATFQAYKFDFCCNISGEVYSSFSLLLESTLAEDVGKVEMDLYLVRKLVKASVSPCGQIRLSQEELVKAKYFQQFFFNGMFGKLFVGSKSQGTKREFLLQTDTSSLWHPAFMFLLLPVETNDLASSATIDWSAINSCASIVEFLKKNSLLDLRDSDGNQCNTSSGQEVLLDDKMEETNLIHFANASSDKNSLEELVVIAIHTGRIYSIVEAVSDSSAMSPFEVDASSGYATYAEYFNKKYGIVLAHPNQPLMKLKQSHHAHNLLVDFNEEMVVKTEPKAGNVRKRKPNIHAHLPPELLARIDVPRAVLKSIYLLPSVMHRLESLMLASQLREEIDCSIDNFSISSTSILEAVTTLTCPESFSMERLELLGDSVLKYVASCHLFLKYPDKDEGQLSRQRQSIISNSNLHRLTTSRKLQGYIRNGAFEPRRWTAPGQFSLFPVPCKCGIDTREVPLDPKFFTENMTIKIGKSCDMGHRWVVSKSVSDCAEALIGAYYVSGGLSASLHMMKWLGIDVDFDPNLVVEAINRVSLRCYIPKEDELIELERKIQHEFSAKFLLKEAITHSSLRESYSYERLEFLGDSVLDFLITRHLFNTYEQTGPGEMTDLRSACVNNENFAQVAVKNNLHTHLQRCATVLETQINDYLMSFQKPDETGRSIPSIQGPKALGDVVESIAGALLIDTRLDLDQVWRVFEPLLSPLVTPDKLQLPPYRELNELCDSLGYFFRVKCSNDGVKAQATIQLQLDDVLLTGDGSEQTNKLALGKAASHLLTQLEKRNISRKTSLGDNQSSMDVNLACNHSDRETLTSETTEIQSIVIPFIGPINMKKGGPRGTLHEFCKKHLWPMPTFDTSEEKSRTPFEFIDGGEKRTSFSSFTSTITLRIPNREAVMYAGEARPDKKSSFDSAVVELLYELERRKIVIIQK
# UniProt Q9SP32: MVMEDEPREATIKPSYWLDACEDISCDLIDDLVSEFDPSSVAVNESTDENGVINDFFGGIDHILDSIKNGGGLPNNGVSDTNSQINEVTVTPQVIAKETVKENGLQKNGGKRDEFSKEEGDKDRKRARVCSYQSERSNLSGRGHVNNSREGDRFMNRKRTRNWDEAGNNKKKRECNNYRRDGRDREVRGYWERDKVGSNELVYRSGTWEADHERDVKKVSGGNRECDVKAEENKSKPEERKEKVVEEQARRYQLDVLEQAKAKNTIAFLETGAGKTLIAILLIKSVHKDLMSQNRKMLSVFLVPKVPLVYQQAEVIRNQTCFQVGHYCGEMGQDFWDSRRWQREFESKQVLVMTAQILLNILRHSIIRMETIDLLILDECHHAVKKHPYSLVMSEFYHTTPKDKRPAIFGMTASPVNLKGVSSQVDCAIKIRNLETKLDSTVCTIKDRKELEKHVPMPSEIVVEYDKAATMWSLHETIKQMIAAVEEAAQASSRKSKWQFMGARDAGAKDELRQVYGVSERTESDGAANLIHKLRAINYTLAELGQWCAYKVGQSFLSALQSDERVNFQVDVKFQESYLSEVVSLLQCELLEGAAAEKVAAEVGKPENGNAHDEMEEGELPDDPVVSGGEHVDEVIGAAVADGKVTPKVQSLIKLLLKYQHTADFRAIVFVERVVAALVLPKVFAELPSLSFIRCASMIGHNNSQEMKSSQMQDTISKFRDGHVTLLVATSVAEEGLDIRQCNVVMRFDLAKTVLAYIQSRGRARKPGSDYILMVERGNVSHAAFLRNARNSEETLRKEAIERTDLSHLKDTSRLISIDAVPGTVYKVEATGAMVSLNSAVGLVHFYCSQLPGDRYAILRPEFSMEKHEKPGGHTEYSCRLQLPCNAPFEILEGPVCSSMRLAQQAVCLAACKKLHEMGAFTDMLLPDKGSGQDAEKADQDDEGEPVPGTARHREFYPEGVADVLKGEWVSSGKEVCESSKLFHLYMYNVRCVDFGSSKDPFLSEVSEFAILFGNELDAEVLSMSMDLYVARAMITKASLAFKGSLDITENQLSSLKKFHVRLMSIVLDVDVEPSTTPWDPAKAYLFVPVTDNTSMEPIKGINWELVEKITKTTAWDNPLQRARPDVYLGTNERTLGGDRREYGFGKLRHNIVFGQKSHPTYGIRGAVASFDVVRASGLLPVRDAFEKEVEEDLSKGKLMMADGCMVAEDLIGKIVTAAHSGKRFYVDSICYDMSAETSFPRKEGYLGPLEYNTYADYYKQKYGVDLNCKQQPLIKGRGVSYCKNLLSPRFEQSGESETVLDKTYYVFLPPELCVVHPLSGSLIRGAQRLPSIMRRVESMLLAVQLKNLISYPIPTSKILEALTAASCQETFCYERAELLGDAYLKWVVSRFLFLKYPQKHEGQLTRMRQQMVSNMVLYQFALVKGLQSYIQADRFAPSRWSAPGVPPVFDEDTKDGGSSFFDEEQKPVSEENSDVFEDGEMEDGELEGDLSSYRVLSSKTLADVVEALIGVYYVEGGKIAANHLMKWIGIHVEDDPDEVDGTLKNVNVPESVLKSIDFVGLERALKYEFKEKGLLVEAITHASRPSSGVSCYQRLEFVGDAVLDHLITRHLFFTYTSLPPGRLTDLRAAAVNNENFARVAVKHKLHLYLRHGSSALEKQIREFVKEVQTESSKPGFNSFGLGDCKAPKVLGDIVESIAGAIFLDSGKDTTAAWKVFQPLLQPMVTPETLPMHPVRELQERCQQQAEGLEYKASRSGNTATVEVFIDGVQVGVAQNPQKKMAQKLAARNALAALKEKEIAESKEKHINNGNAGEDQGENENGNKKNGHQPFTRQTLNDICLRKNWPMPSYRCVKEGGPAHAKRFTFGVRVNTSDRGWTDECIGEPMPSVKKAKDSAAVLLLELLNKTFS
# Results are given in words; binding and its absence hold for the method and conditions named. In cells and extracts the contact can be indirect. Some binding calls cover weakened binding; strength is not graded here. Tags and fused reporters may be left off the sequences shown.
# T1: DRB2-FlagHA (Arabidopsis thaliana) (UniProt Q9SKN2)
# T1 sequence: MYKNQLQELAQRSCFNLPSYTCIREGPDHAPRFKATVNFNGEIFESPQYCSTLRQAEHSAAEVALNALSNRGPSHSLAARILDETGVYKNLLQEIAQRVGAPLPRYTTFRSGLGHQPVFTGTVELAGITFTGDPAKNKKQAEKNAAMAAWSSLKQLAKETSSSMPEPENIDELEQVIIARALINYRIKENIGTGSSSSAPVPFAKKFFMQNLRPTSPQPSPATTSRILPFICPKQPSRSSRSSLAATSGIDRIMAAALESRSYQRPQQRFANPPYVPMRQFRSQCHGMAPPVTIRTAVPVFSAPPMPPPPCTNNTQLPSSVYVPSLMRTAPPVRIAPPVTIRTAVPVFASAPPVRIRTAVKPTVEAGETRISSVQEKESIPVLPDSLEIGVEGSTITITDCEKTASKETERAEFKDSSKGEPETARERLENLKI
# T2: HDA19-GFP (Arabidopsis thaliana) (UniProt O22446)
# T2 sequence: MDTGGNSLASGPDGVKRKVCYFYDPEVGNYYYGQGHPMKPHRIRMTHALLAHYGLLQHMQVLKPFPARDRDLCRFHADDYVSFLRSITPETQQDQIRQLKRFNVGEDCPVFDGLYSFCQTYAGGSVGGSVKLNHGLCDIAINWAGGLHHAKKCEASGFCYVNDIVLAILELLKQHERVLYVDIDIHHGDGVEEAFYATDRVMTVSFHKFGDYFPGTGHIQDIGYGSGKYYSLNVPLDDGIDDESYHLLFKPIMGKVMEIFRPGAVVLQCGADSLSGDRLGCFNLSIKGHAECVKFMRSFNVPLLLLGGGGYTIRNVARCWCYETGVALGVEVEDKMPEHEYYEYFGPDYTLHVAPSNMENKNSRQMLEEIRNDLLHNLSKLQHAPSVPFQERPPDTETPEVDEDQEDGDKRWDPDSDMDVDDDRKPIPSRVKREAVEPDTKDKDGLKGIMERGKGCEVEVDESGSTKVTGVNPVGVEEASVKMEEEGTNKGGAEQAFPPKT
# T3: eGFP-MSI4 (Arabidopsis thaliana) (UniProt O22607)
# T3 sequence: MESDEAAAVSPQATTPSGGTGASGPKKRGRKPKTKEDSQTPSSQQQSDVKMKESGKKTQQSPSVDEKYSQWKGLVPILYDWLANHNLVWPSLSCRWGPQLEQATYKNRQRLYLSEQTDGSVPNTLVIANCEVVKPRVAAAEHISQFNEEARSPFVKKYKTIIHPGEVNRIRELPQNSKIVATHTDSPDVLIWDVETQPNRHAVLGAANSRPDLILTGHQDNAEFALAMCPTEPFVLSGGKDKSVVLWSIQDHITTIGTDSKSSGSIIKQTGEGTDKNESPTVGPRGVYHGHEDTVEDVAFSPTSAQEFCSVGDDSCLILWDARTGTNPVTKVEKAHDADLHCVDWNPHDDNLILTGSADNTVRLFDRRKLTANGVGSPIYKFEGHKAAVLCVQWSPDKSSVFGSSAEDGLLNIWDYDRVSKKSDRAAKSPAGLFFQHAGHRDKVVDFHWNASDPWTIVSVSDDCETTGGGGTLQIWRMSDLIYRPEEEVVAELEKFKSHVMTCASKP
# T4: PRMT4B-Cmyc (Arabidopsis thaliana) (UniProt Q84W92)
# T4 sequence: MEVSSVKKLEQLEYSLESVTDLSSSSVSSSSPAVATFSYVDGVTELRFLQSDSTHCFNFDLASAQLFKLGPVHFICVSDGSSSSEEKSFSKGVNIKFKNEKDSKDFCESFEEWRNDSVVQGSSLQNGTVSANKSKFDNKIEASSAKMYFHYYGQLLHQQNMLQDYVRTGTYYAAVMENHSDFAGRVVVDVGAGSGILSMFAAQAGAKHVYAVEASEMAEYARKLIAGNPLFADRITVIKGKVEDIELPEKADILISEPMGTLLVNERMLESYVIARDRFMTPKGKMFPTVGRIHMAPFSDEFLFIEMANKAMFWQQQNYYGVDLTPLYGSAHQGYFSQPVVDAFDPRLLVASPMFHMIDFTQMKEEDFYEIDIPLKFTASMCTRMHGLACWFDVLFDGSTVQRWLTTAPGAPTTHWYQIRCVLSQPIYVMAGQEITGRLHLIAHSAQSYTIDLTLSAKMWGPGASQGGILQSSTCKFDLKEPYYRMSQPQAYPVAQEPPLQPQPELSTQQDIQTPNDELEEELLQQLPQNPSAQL
# T5: MSI4-eGFP (Arabidopsis thaliana) (UniProt O22607)
# T5 sequence: T3 sequence
# T6: MSI4-eGFP (transiently expressed in Nicotiana benthamiana) (Arabidopsis thaliana) (UniProt O22607)
# T6 sequence: T3 sequence
# B1: DRB2-Cmyc (protein, UniProt Q9SKN2 1-434)
# chain: T1 sequence
# B2: DRB2-FlagHA (protein, UniProt Q9SKN2 1-434)
# chain: T1 sequence
# B3: DRB2-FlagHA (transiently expressed in Nicotiana benthamiana) (protein, UniProt Q9SKN2 1-434)
# chain: T1 sequence
# B4: DRB1 (protein, UniProt O04492 1-419)
# chain: MTSTDVSSGVSNCYVFKSRLQEYAQKYKLPTPVYEIVKEGPSHKSLFQSTVILDGVRYNSLPGFFNRKAAEQSAAEVALRELAKSSELSQCVSQPVHETGLCKNLLQEYAQKMNYAIPLYQCQKVETLGRVTQFTCTVEIGGIKYTGAATRTKKDAEISAGRTALLAIQSDTKNNLANYNTQLTVLPCEKKTIQAAIPLKETVKTLKARKAQFKKKAQKGKRTVAKNPEDIIIPPQPTDHCQNDQSEKIETTPNLEPSSCMNGLKEAAFGSVETEKIETTPNLEPPSCMNGLKEAAFGSVETEKIETTPNLEPPSCMNGLKEAAFGSVETEKIETTPNLEPSSCMNGLKEAAFGSVETEKIETTPNLEPPSCMNGLKEAAFGSVETEKIETTPNLESSSCMSGLKEAAFGSVETEASHA
# B5: DRB5 (protein, UniProt Q8GY79 1-393)
# chain: MYKNQLQELAQRSCFNLPSYTCIREGPDHAPRFKASVNFNGEIFESPTYCSTLRQAEHAAAEVSLNVLSSRVPSKSLTAKILDETGIYKNLLQETAHRAGLDLPMYTSVRSGSCHFPGFSCTVELAGMTFTGESAKTKKQAEKNAAIAAWSSLKKMSSLDSQDEEKEQEAVARVLSRFKPKEVRRRETTNQWRRRTSQQDSNKDLLIERLRWINLLTNQASSSSSTSTPNQHKNSSFISLIPPPPPPKSSKILPFIQQYKDRSSQEAKTETATEMINSKAKVNETSTRLSKQMPFSDMNRYNFVGGCSVNPYSLAPAVQMRSVIPVFAAPPPKPNPNLNPSSLSSSVNEFTSSNNSCSVLNTPGLGGQEKKNLTREMIKLGSESRILDQTHDS
# B6: RDR2 (enzyme, UniProt O82504 1-1133)
# chain: MVSETTTNRSTVKISNVPQTIVADELLRFLELHLGEDTVFALEIPTTRDNWKPRDFARVQFTTLEVKSRAQLLSSQSKLLFKTHNLRLSEAYDDIIPRPVDPRKRLDDIVLTVGFPESDEKRFCALEKWDGVRCWILTEKRRVEFWVWESGDCYKIEVRFEDIIETLSCCVNGDASEIDAFLLKLKYGPKVFKRVTVHIATKFKSDRYRFCKEDFDFMWIRTTDFSGSKSIGTSTCFCLEVHNGSTMLDIFSGLPYYREDTLSLTYVDGKTFASAAQIVPLLNAAILGLEFPYEILFQLNALVHAQKISLFAASDMELIKILRGMSLETALVILKKLHQQSSICYDPVFFVKTQMQSVVKKMKHSPASAYKRLTEQNIMSCQRAYVTPSKIYLLGPELETANYVVKNFAEHVSDFMRVTFVEEDWSKLPANALSVNSKEGYFVKPSRTNIYNRVLSILGEGITVGPKRFEFLAFSASQLRGNSVWMFASNEKVKAEDIREWMGCFRKIRSISKCAARMGQLFSASRQTLIVRAQDVEQIPDIEVTTDGADYCFSDGIGKISLAFAKQVAQKCGLSHVPSAFQIRYGGYKGVIAVDRSSFRKLSLRDSMLKFDSNNRMLNVTRWTESMPCFLNREIICLLSTLGIEDAMFEAMQAVHLSMLGNMLEDRDAALNVLQKLSGENSKNLLVKMLLQGYAPSSEPYLSMMLRVHHESQLSELKSRCRILVPKGRILIGCMDEMGILEYGQVYVRVTLTKAELKSRDQSYFRKIDEETSVVIGKVVVTKNPCLHPGDIRVLDAIYEVHFEEKGYLDCIIFPQKGERPHPNECSGGDLDGDQFFVSWDEKIIPSEMDPPMDYAGSRPRLMDHDVTLEEIHKFFVDYMISDTLGVISTAHLVHADRDPEKARSQKCLELANLHSRAVDFAKTGAPAEMPYALKPREFPDFLERFEKPTYISESVFGKLYRAVKSSLAQRKPEAESEDTVAYDVTLEEAGFESFIETAKAHRDMYGEKLTSLMIYYGAANEEEILTGILKTKEMYLARDNRRYGDMKDRITLSVKDLHKEAMGWFEKSCEDEQQKKKLASAWYYVTYNPNHRDEKLTFLSFPWIVGDVLLDIKAENAQRQSVEEKTSGLVSI
# How the values were obtained:
# [1] = molecular target: T1, DRB2-FlagHA (Arabidopsis thaliana); test: co-IP; Flag IP from crude extracts of the DRB2-FlagHA complemented line (or of plants cotransformed with DRB2-FlagHA and DRB4-Cmyc); western blot with Cmyc or custom made antibodies
# [2] = molecular target: T1, DRB2-FlagHA (Arabidopsis thaliana); test: co-IP; DRB2-FlagHA (or NERD-FlagHA) immunoprecipitated on anti Flag magnetic beads, beads then challenged with DRB2-Cmyc extracts; eluate blotted with Cmyc antibody
# [3] = molecular target: NERD-FlagHA (Arabidopsis thaliana) (UniProt Q9SIV5); test: as above
# [4] = molecular target: T2, HDA19-GFP (Arabidopsis thaliana); test: co-IP; F1 plants harbouring DRB2-FlagHA and the second transgene; Cmyc IP (PRMT4B-Cmyc) or GFP IP (HDA19-GFP, MSI4-eGFP, eGFP-MSI4); DRB2-FlagHA revealed with HA antibody
# [5] = molecular target: T3, eGFP-MSI4 (Arabidopsis thaliana); test: as above
# [6] = molecular target: T4, PRMT4B-Cmyc (Arabidopsis thaliana); test: as above
# [7] = molecular target: T5, MSI4-eGFP (Arabidopsis thaliana); test: as above
# [8] = molecular target: T6, MSI4-eGFP (transiently expressed in Nicotiana benthamiana) (Arabidopsis thaliana); test: co-IP; DRB2-FlagHA and MSI4-eGFP transiently co-expressed in N. benthamiana leaves; GFP IP, western blot with HA antibody
# [9] = molecular target: T1, DRB2-FlagHA (Arabidopsis thaliana); test: co-IP; Flag IP from crude extracts of the DRB2-FlagHA complemented line (or of plants cotransformed with DRB2-FlagHA and DRB4-Cmyc); western blot with Cmyc or custom made antibodies; remark: listed apart in the source
molecule,measurement,setting,value
DCL4 (from UniProt P84634 1-1702) (enzyme),binding,[1],no binding
DCL3 (from UniProt Q9LXW7 1-1580) (enzyme),binding,[1],no binding
DCL1 (from UniProt Q9SP32 1-1909) (enzyme),binding,[1],no binding
B1,binding,[2],binds
same,binding,[3],no binding
B2,binding,[4],binds
same,binding,[5],binds
same,binding,[6],binds
same,binding,[7],binds
B3,binding,[8],binds
B4,binding,[9],no binding
B5,binding,[9],no binding
B6,binding,[9],no binding
